From patent US7488592
Changes are numbered by the printed parent chain. Names and notes keep the numbering of the source. No constants are given. Whether binding was seen depends on the method and setting. Binding seen in cells or lysates may run through a third protein. Some binding calls cover weakened binding; strength is not graded here. Tags and fused reporters may be left off the sequences shown.

T1: FLAG-Erf2p (yeast (S. cerevisiae)) (UniProt Q06551)
T1 sequence: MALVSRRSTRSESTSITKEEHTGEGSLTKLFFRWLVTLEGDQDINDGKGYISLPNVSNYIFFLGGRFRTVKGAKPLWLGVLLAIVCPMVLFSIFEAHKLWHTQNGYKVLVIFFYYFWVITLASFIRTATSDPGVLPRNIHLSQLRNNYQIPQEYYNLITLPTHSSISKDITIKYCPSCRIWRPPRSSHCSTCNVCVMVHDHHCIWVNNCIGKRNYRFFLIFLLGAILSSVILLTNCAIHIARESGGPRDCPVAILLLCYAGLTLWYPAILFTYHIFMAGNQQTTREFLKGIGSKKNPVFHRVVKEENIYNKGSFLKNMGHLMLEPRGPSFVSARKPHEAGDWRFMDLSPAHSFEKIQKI

T2: GST-Erf4p (yeast (S. cerevisiae)) (UniProt P41912)
T2 sequence: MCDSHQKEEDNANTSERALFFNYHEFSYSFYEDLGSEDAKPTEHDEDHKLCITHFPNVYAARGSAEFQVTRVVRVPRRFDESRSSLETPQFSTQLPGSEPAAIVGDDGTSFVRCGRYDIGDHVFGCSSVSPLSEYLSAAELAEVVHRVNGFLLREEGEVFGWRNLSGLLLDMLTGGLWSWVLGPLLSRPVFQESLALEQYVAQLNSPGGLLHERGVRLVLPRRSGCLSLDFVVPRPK

B1: GST-Erf4p (protein, not shown: a dimerising Fc or GST)
chain: T2 sequence
B2: FLAG-Erf2(H201A)p (enzyme, not shown: small tags and cut ends)
chain: T1 sequence with H201A
B3: FLAG-Erf2(C203S)p (enzyme, not shown: small tags and cut ends)
chain: T1 sequence with C203S

Experiments:
[1] = biological target: T1, FLAG-Erf2p (yeast (S. cerevisiae)); experiment: co-purification on anti-FLAG antibody-agarose beads from yeast extracts
[2] = biological target: T2, GST-Erf4p (yeast (S. cerevisiae)); experiment: co-purification on GSH-agarose from E. coli extracts, immunoblot (FIG. 7)
[3] = biological target: T2, GST-Erf4p (yeast (S. cerevisiae)); experiment: co-purification on GSH-agarose from yeast extracts, immunoblot
[4] = biological target: T2, GST-Erf4p (yeast (S. cerevisiae)); experiment: co-purification with GST-Erf4p

Binder | binding [1] | binding [2] | binding [3] | binding [4]
B1 | binds | – | – | –
B2 | – | binds | binds | –
B3 | – | binds | – | binds
